Test results reported in PMC6599020.
No constants are given. Whether binding was seen depends on the method and setting. In cells and extracts the contact can be indirect. Some entries that bind do so weakly or less than the wild type.

Amino acid sequences for entries named in this document (tags omitted).
UniProt P11142: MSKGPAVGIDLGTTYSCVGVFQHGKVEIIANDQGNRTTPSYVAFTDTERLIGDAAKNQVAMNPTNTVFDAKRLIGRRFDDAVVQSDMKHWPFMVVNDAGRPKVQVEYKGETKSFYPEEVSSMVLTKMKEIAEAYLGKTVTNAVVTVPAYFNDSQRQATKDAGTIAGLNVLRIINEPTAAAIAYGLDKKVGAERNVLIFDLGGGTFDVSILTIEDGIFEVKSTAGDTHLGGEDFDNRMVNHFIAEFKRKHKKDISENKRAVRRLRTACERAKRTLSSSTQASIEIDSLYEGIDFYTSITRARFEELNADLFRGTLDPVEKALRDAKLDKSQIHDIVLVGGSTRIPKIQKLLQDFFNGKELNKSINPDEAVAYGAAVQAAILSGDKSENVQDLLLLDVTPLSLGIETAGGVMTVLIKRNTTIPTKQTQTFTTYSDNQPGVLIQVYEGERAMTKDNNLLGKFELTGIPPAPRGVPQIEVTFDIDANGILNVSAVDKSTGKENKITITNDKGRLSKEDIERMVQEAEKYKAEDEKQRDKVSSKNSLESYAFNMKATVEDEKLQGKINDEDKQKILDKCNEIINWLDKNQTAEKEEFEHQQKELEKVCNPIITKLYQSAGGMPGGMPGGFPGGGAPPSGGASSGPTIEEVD

How the values were obtained:
[1] = target: T1, retinoblastoma protein (Rb) (human (endogenous in 293FT)) (UniProt P06400); test: co-IP; 3×-FLAG-ΔNLS-DEDD overexpressed in 293FT cells; cells treated with 1 ng/mL EGF and 1 µM MG-132 for 6 h; M2 lysis buffer (50 mM Tris-HCl pH 7.4, 150 mM NaCl, 1% Triton X-100, 0.5 mM EDTA); lysate incubated with Rb (4H1) antibody overnight, protein A/G agarose 2 h at 4 °C
T1 sequence: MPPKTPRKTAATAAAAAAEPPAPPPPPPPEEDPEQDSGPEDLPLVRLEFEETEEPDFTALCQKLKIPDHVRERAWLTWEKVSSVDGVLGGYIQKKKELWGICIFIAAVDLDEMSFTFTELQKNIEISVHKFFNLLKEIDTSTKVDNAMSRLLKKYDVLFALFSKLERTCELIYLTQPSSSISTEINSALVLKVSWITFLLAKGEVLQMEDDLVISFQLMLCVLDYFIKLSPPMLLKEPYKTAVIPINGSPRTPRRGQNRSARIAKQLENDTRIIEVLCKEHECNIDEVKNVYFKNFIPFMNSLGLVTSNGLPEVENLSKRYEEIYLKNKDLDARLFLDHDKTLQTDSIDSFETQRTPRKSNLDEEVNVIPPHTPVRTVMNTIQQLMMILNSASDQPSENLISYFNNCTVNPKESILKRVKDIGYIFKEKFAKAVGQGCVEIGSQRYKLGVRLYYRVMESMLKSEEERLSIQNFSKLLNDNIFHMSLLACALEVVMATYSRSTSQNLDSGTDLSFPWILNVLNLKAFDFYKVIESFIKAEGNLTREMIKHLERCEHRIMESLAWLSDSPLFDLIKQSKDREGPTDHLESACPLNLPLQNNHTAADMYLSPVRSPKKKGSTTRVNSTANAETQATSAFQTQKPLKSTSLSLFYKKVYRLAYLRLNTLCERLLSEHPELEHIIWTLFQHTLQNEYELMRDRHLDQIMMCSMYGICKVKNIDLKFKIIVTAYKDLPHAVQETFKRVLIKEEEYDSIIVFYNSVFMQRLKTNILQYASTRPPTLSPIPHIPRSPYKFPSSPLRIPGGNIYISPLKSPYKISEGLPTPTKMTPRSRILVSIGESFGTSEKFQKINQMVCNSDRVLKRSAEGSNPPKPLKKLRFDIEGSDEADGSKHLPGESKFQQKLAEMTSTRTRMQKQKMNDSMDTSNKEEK

[2] = target: 3×-FLAG-ΔNLS-DEDD (cytosolic Death Effector Domain-containing DNA-binding protein with substitution mutations in all three nuclear localization sequences) (human) (UniProt O75618); test: co-IP; 3×-FLAG-DEL-NLS-DEDD plasmid overexpressed in 293FT cells; also in TNBC cells (Supplementary Fig. 6H)

| Substance | binding [1] | binding [2] |
| --- | --- | --- |
| 3×-FLAG-ΔNLS-DEDD (cytosolic Death Effector Domain-containing DNA-binding protein with substitution mutations in all three nuclear localization sequences) (from UniProt O75618-1 1-318) | binds | – |
| heat-shock cognate 71 kDa protein (HSC70) (from UniProt P11142 1-646) | – | binds |
